Test results from paper PMC3788743.
No constants are given. Whether binding was seen depends on the method and setting. Binding seen in cells or lysates may run through a third protein. Sequences can lack the tags named with a protein.

T1: Flag-REEP1 (HSP), REEP1(Arg113X), HSP mutant form of REEP1 with a premature stop codon at Arg113 (mouse) (UniProt Q8BGH4)
T1 sequence: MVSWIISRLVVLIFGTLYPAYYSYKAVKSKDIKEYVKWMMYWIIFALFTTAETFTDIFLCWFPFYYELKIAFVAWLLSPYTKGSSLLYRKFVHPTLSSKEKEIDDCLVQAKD

B1: Flag-REEP1 (receptor expression enhancing protein 1, mouse, carboxyl terminus Flag epitope) (protein, UniProt Q8BGH4 1-201)
chain: MVSWIISRLVVLIFGTLYPAYYSYKAVKSKDIKEYVKWMMYWIIFALFTTAETFTDIFLCWFPFYYELKIAFVAWLLSPYTKGSSLLYRKFVHPTLSSKEKEIDDCLVQAKDRSYDALVHFGKRGLNVAATAAVMAASKGQGALSERLRSFSMQDLTTIRGDGAPAPSGPPPPGTGRSSGKHSQPKMSRSASESAGSSGTA
B2: Flag-REEP2 (receptor expression enhancing protein 2, mouse, carboxyl terminus Flag epitope) (protein, UniProt Q8VCD6 1-254)
chain: MVSWIISRLVVLIFGTLYPAYSSYKAVKTKNVKEYVKWMMYWIVFAFFTTAETLTDIILSWFPFYFELKIAFVIWLLSPYTKGSSVLYRKFVHPTLSNKEKEIDEYITQARDKSYETMMRVGKRGLNLAANAAVTAAAKGQGVLSEKLRSFSMQDLTLIRDEDALPLQGPDGRLQPGPVGLLDTIEDLGDEPALSLRSSTSQPDPRTETSEDDLGDKAPKRTKPIKKVPRAEPPASKTLKTRPKKKSSGGGDSA
B3: Flag-REEP6 (receptor expression enhancing protein 6, mouse, carboxyl terminus Flag epitope) (protein, UniProt Q9JM62-1 1-201)
chain: MDGLRQRFERFLEQKNVATEALGALEARTGVEKRYLAAGALALLGLYLLFGYGASLLCNVIGFVYPAYASVKAIESPSKEDDTVWLTYWVVYALFGLVEFFSDLLLFWFPFYYAGKCAFLLFCMTPGPWNGALLLYHRVIRPLFLKHHMALDSAASQLSGRALDLAAGITRDVLQALARGRALVTPASTSEPPAALELDPK

Key:
[1] = biological target: T1, Flag-REEP1 (HSP), REEP1(Arg113X), HSP mutant form of REEP1 with a premature stop codon at Arg113 (mouse); test: co-IP; HEK293A cells co-transfected with HA-α2 AR and Flag-REEP, 18 h; lysates in modified RIPA buffer (0.15 M NaCl, 1% NP40, 0.25% DOC, 50 mM HEPES pH 7.4, 1 mM EDTA); precipitated with M2 (anti-Flag) on Dynabeads Protein G overnight at 4°C; blot with anti-HA
[2] = biological target: HA-α2A adrenergic receptor; test: co-IP; reverse: same lysates precipitated with 16B12 (anti-HA, α2 AR co-IP) on Dynabeads Protein G overnight at 4°C; blot with M2 (anti-Flag)

| Molecule | binding [1] | binding [2] |
| --- | --- | --- |
| HA-α2C adrenergic receptor | no binding | – |
| B1 | – | no binding |
| B2 | – | no binding |
| B3 | – | no binding |
